Data published in patent publication US20100069244A1, “Pyridine Compounds for Combating Pests” (priority 2006, published 2010).
Some entries share one result that the patent states for a list of compounds. For at least one compound, name, drawing or mass did not settle the structure.

What was measured:
Type in all cases: in vivo
[1] = test system: Colorado Potato Beetle (Leptinotarsa decemlineata); assay: Activity against Colorado potato beetle, potato leaf dip; settings: 300 ppm; larvae on dipped potato leaves; 5 days after treatment
Method: 6. Activity Against Colorado Potato Beetle (Leptinotarsa decemlineata)
Potato plants were utilized for bioassays. Excised plant leaves were dipped into 1:1 acetone/water dilutions of the active compounds. After the leaves had dried, they were individually placed onto water-moistened filter paper on the bottoms of Petri dishes. Each dish was infested with 5 to 7 larvae and covered with a lid. Each treatment dilution was replicated 4 times. Test dishes were held at approximately 27° C. and 60% humidity. Numbers of live and morbid larvae were assessed in each dish at 5 days after treatment application, and percent mortality was calculated.

[2] = test system: Cotton Aphid (Aphis gossypii); assay: Activity against cotton aphid, cotyledon dip; settings: 300 ppm; cotton cotyledons dipped; mortality counts after 5 days
[3] = test system: Green Peach Aphid (Myzus persicae); assay: Green peach aphid, pepper leaf dip; settings: 300 ppm; pepper leaves dipped; after 5 days
[4] = test system: Orchid Thrips (Dichromothrips corbetti); assay: Orchid thrips, floral-immersion technique; settings: 300 ppm; adult thrips on dipped orchid flowers; after 4 days
[5] = test system: Silverleaf Whitefly (Bemisia argentifolii); assay: Activity against silverleaf whitefly, cotton cotyledon dip; settings: 300 ppm; whitefly adults on dipped cotton cotyledons; 3 days after treatment
[6] = test system: Cowpea Aphid (Aphis craccivora); assay: Activity against cowpea aphid, spray on potted cowpea plants; settings: 300 ppm; sprayed cowpea plants; population reduction recorded after 24, 72 and 120 hours

Row | SMILES | mortality compared to 0% mortality of untreated controls [1] | mortality in comparison with untreated controls [2] | mortality in comparison with untreated controls [3] | mortality in comparison with untreated controls [4] | mortality in comparison with untreated controls [5] | mortality in comparison with untreated controls [6]
1 | COc1cccc(CN2CC[C@H]2COc2cncc(Cl)c2)c1 [Ia-76] | over 50% | over 90% | over 90% | – | – | –
2 | CN(C)c1ccc(CN2CC[C@H]2COc2ccc(Cl)nc2)cc1 [Ia-22] | over 50% | over 90% | over 90% | over 75% | over 75% | over 90%
3 | Clc1ccc(OC[C@@H]2CCN2Cc2ccc3ccccc3c2)cn1 [Ia-50] | over 50% | over 90% | over 90% | – | over 75% | over 90%
4 | CC(Oc1cccnc1)C1CCCN1Cc1cccn1C (mixture of isomers) [Ib-19] | over 50% | – | – | – | – | –
5 | CC(Oc1cccnc1)C1CCCN1Cc1c[nH]c2ccccc12 (mixture of isomers) [Ib-20] | over 50% | – | – | – | – | –
6 | CC(C)CCN1CC[C@H]1COc1ccc(Cl)nc1 [Ia-128] | over 50% | – | over 90% | – | – | –
7 | Fc1ccc(CN2CC[C@H]2COc2cnc(Cl)c(Cl)c2)cc1 [Ia-14] | over 50% | over 90% | over 90% | over 75% | – | over 90%
8 | COc1cc(OC)c(CN2CC[C@H]2COc2cnc(Cl)c(Cl)c2)c(OC)c1 [Ia-59] | over 50% | over 90% | – | – | over 75% | –
9 | Cc1ccccc1CN1CC[C@H]1COc1ccc(Cl)nc1 [Ia-23] | over 50% | over 90% | over 90% | over 75% | over 75% | over 90%
10 | Clc1ccc(CN2CC[C@H]2COc2ccc(Cl)nc2)cc1 [Ia-65] | over 50% | over 90% | over 90% | over 75% | – | over 90%
11 | Clc1cncc(OCC2CCN2CC=Cc2cc(Br)cs2)c1 (centres unmarked) [Ia-188] | over 50% | over 90% | over 90% | – | – | –
12 | COc1ccc(CN2CC[C@H]2COc2ccc(Cl)nc2)cc1 [Ia-52] | over 50% | over 90% | over 90% | over 75% | over 75% | over 90%
13 | CC(C)(C)CCN1CC[C@H]1COc1ccc(Cl)nc1 [Ia-126] | over 50% | over 90% | over 90% | – | – | –
14 | CC(C)CC(CN1CC[C@H]1COc1cncc(Cl)c1)c1ccc(F)cc1 (some centres unmarked) [Ia-159] | over 50% | over 90% | over 90% | – | over 75% | –
15 | Clc1cncc(OC[C@@H]2CCN2Cc2cccc(OCc3ccccc3)c2)c1 [Ia-11] | over 50% | – | – | – | – | –
16 | Clc1ccc(OC[C@@H]2CCN2CC2=CCCOC2)cn1 [Ia-141] | over 50% | – | over 90% | – | – | –
17 | Clc1cncc(OC[C@@H]2CCN2CC2=CCCOC2)c1 [Ia-143] | over 50% | – | over 90% | – | – | –
18 | CCC(O)CN1CC[C@H]1COc1cncc(Cl)c1 (some centres unmarked) [Ia-44] | over 50% | – | over 90% | – | – | over 90%

Row | SMILES | mortality compared to 0% mortality of untreated controls [1] | mortality in comparison with untreated controls [2] | mortality in comparison with untreated controls [3] | mortality in comparison with untreated controls [4] | mortality in comparison with untreated controls [5] | mortality in comparison with untreated controls [6]
19 | Fc1cccc(CN2CC[C@H]2COc2cnc(Cl)c(Cl)c2)c1 [Ia-88] | over 50% | over 90% | over 90% | – | over 75% | over 90%
20 | Clc1cncc(OCC2CCN2Cc2cccnc2)c1 (centres unmarked) [Ia-201] | over 50% | over 90% | over 90% | – | – | –
21 | Clc1ccc(OC[C@@H]2CCN2Cc2ccoc2)cn1 [Ia-142] | over 50% | over 90% | over 90% | – | over 75% | –
22 | CSc1ccc(CN2CC[C@H]2COc2cncc(Cl)c2)cc1 [Ia-26] | – | over 90% | over 90% | over 75% | over 75% | over 90%
23 | CCCCN1CC[C@H]1COc1cncc(Cl)c1 [Ia-153] | over 50% | over 90% | over 90% | – | – | –
24 | Fc1ccc(CN2CC[C@H]2COc2ccc(Cl)nc2)cc1 [Ia-6] | – | over 90% | over 90% | over 75% | over 75% | over 90%
25 | N#Cc1csc(CN2CCC2COc2cncc(Cl)c2)c1 (centres unmarked) [Ia-212] | – | over 90% | over 90% | over 75% | over 75% | over 90%
26 | COc1cccc(CN2CC[C@H]2COc2ccc(Cl)nc2)c1 [Ia-121] | over 50% | – | over 90% | – | – | –
27 | CSc1ccc(CN2CC[C@H]2COc2ccc(Cl)nc2)cc1 [Ia-42] | – | over 90% | over 90% | over 75% | over 75% | over 90%
28 | FC(F)(F)c1cccc(CN2CC[C@H]2COc2cncc(Cl)c2)c1 [Ia-73] | over 50% | over 90% | over 90% | – | – | over 90%
29 | CN(C)c1ccc(CN2CCC2COc2cncc(Cl)c2)cc1 (centres unmarked) [Ia-31] | – | over 90% | over 90% | over 75% | over 75% | over 90%
30 | Clc1cncc(OCC2CCN2Cc2cccs2)c1 (centres unmarked) [Ia-215] | – | over 90% | over 90% | over 75% | over 75% | over 90%
31 | Cc1cccc(CN2CC[C@H]2COc2ccc(Cl)nc2)c1 [Ia-67] | over 50% | over 90% | over 90% | over 75% | – | over 90%
32 | Fc1ccc(CN2CC[C@H]2COc2cncc(Cl)c2)cc1 [Ia-10] | over 50% | over 90% | over 90% | over 75% | – | over 90%
33 | C#CC(C)N1CCC1COc1cnc(Cl)c(Cl)c1 (mixture of isomers) [Ia-232] | over 50% | over 90% | over 90% | over 75% | over 75% | over 90%
34 | Clc1ccc(OC[C@@H]2CCN2Cc2cccc3ccccc23)cn1 [Ia-106] | – | over 90% | over 90% | over 75% | over 75% | over 90%
35 | Clc1cncc(OC[C@@H]2CCN2CCCc2ccccc2)c1 [Ia-161] | over 50% | over 90% | over 90% | – | – | over 90%
